PubChem BioAssay AID686943, Drosophila RNAi Screening Center | 2013
Aim: 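Knockdowns that increase or decrease active ERK after insulin receptor stimulation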 (primary screen). Cell system: Drosophila S2R+ haemocyte-like cells expressing YFP-tagged ERK (Rolled). Reagent: long dsRNA against Drosophila genes. Challenge: insulin stimulation versus unstimulated cells; dose and duration not given. Measurement: 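Per-plate z-scores of phospho-ERK immunostaining normalised to YFP-tagged ERK, measured with and without insulin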. Reading the numbers: replicate 1, z-score of dpERK with insulin and replicate 2, z-score of dpERK with insulin: higher = more active ERK per ERK-YFP after insulin; replicate 1, z-score of dpERK under basal conditions: higher = more basal active ERK per ERK-YFP; replicate 1, z-score of ERK-YFP with insulin: higher = more YFP-tagged ERK signal.
The screen tested about 23,000 reagents; this is an unselected part of those that have a named target and a result. 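Extra replicates exist only for a retested subset of genes; insulin dose and duration not given; both raised and lowered dpERK matter.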 Names joined by + are all predicted targets of the reagent. Not given: the amount of reagent, the time to read-out.

gene	PubChem SID	replicate 1, z-score of dpERK with insulin	replicate 2, z-score of dpERK with insulin	replicate 1, z-score of dpERK under basal conditions	replicate 1, z-score of ERK-YFP with insulin
yellow-b	SID104183431	-0.56	-0.28	0.91	0.41
Ac13E (Adenylyl cyclase 13E)	SID104199117	1.02	0.6	0.8	0
CG17349	SID104182402	-0.48	-1.27	-0.34	-0.15
Muc26B (Mucin 26B)	SID104182114	-0.14	0.55	-0.13	0.02
CG15882	SID104199527	-0.08	-0.14	0.74	0.57
CG11145	SID104185841	-0.45	-0.17	-0.23	1.21
CG5078	SID104191554	-0.3	-0.13	0.73	0.05
CG33272	SID104188908	-3.44	-3.86	-0.21	-2.28
Xport-A + Xport-B	SID104195378	1.89	0.91	0.18	-0.06
CG14270	SID104197705	-0.03	0	0.78	0.73
BubR1 (Bub1-related kinase)	SID104184630	-0.88	1.3	-0.71	0.16
ckn (caskin)	SID104185941	0.3	1.41	0.64	0.57
Obp56e (Odorant-binding protein 56e)	SID104186980	0.23	0.02	0.38	0.16

Next part; the last 2 above are carried over.
gene	PubChem SID	replicate 1, z-score of dpERK with insulin	replicate 2, z-score of dpERK with insulin	replicate 1, z-score of dpERK under basal conditions	replicate 1, z-score of ERK-YFP with insulin
ckn (caskin)	SID104185941	0.3	1.41	0.64	0.57
Obp56e (Odorant-binding protein 56e)	SID104186980	0.23	0.02	0.38	0.16
CG6938	SID104190544	-0.09	-0.07	-0.34	0.01
VhaPPA1-1 (Vacuolar H[+] ATPase PPA1 subunit 1)	SID104195962	1.44	-0.12	-0.41	0.41
heph (hephaestus)	SID104193874	0.31	0.53	1.45	1.19
heph (hephaestus)	SID104193877	-1.09	-1.99	-0.83	1.15
heph (hephaestus)	SID104195228	0.02	-0.74	0.62	-0.24
heph (hephaestus)	SID104196575	-1.9	-0.5	-0.57	1.46
CG5639	SID104195643	0.24	-1.44	-0.85	0.18
papi	SID104180485	-0.58	-0.83	-0.61	1.23
hd (humpty dumpty)	SID104192108	-0.15	0.37	1.22	-0.87
or (orange)	SID104184121	1.25	0.56	-1.3	-0.63
